Measurements taken from PubChem BioAssay AID720504 (National Center for Advancing Translational Sciences (NCATS), 2013).
The campaign covered roughly 360,000 compounds. About 10,000 (2.8%) were called active. This list was built around the results that the source calls inconclusive (neither active nor inactive); the mix of calls is not that of the screen. Calls come from the whole dose curve; as a rule, active = well fitted inhibition curve with a large enough effect; inconclusive = small, poorly fitted or top-dose-only effect; inactive = flat fitted curve, though single readings scatter. Potencies beside an inconclusive call are fits to weak or partial responses and may not hold up. Where a SMILES comes first, the peptide text is derived from it. The star is where a group is joined. Boc = CC(C)(C)OC(=O)*

Sequences of proteins named here, by UniProt entry; tags and fusion partners are left off.
UniProt P53350, whole entry, looked up: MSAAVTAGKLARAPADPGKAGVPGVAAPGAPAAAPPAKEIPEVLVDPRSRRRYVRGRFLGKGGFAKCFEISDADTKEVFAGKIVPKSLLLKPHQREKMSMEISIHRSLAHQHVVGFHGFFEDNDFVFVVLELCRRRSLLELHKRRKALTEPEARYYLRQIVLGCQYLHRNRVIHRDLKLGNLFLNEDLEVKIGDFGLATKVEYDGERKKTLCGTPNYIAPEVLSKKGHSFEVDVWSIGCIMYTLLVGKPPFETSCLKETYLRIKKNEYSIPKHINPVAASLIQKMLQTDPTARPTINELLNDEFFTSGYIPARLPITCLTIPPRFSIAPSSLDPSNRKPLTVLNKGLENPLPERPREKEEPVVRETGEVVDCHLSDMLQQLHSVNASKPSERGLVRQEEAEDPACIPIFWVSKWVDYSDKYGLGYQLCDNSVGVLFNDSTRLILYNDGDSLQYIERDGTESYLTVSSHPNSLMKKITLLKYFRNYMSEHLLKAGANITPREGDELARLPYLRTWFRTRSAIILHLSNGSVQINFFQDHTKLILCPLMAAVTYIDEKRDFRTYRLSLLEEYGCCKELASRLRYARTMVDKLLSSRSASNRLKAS

target: Serine/threonine-protein kinase PLK1 (Homo sapiens) (UniProt P53350); experiment: qHTS for Inhibitors of PLK1-PDB (polo-like kinase 1 - polo-box domain): Primary Screen; details: Plk1 PBD binding of FITC phosphopeptide, fluorescence polarization; note: nearly all actives have a fitted effect of over 65% in size; for max response, negative = inhibition: series mostly up to about 57 µM
% is set by controls: 0 for no effect and ±100 for the full control effect; potency is the fitted concentration of half-maximal effect.

| SMILES | max response, negative = inhibition | Potency |
| --- | --- | --- |
| COc1cccc(-c2cc(C(=O)NCC3CCCO3)on2)c1 (configuration not stated) | inactive: -6.62% |  |
| Cc1ccc2c(CC(=O)OCc3cc(=O)n4c(n3)sc3ccccc34)coc2c1 |  | inconclusive: 29.9 µM [inhibitor, single point] |
| NC(=O)c1ccccc1NC(=O)CSC1=NCCS1 |  | inconclusive: 26.7 µM [inhibitor, partial curve] |
| CCOc1ccc(Cl)cc1C(c1c(C)[nH][nH]c1=O)c1c(C)[nH][nH]c1=O |  | inconclusive: 23.8 µM [inhibitor, partial curve] |
| CC1(C)CC(=O)C2=C(C1)Nc1ccccc1N(C(=O)C1CC1)C2c1ccco1 (configuration not stated) |  | active: 9.47 µM |
| Cc1nc2ccc(NC(=O)c3ccc([N+](=O)[O-])cc3)cc2[nH]1 | inactive: -8.88% |  |
| CCc1ccc(NC(=O)CSc2nc3nc(C)cc(C)n3n2)cc1 |  | inconclusive: 29.9 µM [inhibitor, single point] |
| CCC(C(=O)NCc1cccnc1)n1nc(C)n2c(cc3occc32)c1=O (configuration not stated) | inactive: 0.556% |  |
| COc1ccc(CC(=O)NNc2ncnc3c2cnn3C)cc1OC |  | inconclusive: 23.8 µM [inhibitor, partial curve] |
| O=C(CCc1ccccc1)c1ccc2c(c1)OCCCO2 | inactive: -0.165% |  |
| [O-][n+]1c2ccccc2[n+]([O-])c2cc(O)ccc21 |  | inconclusive: 10.6 µM [inhibitor, partial curve] |
| CCc1oc(C(=O)OC)cc1CSC(=N)N |  | inconclusive: 29.9 µM [inhibitor, single point] |
| COc1cccc(C(=O)NNC(=O)CCc2ccccc2)c1 |  | inconclusive: 16.8 µM [inhibitor, partial curve] |
| Cc1cccc(C2c3[nH]c4ccccc4c3CCN2C(=O)c2nn(C)c(=O)c3ccccc23)n1 (configuration not stated) |  | inconclusive: 29.9 µM [inhibitor, single point] |
| COc1cc(NC2c3ncccc3C(=O)N2Cc2ccco2)cc(OC)c1OC (configuration not stated) | inconclusive: -31.3% [inhibitor] |  |
| COc1ccccc1C(=O)NCCOc1ccc(C(C)(C)C)cc1 | inactive: 3.98% |  |
| O=C(Nc1ccc(C(=O)O)cc1)/C(=C\C=C\c1ccccc1)NC(=O)c1ccc(Br)cc1 |  | inconclusive: 15 µM [inhibitor, partial curve] |
| O=C(CN1C(=O)NC2(CCCC2)C1=O)Nc1cccc(-c2nnc3n2CCCCC3)c1 |  | inconclusive: 21.2 µM [inhibitor, single point] |
| CCOC(=O)c1cc(CC)sc1NC(=O)c1cc([N+](=O)[O-])ccc1N1CCOCC1 |  | inconclusive: 23.8 µM [inhibitor, single point] |
| COc1cc(CCN(C(=O)c2cc3ccccc3[nH]2)C(c2ccccn2)c2nc3ccccc3[nH]2)cc(OC)c1 (configuration not stated) |  | inconclusive: 23.8 µM [inhibitor, partial curve] |
| CC(=O)c1sc(Nc2nc3cc4c(cc3s2)OCO4)nc1C |  | inconclusive: 37.7 µM [inhibitor, single point] |
| O=C(/C=C/c1ccccc1)NC(=S)NNS(=O)(=O)c1ccccc1 |  | inconclusive: 29.9 µM [inhibitor, single point] |
| Cc1nc(-c2ccc3c(c2)OCCCO3)cs1 | inactive: -15% |  |
| O=C(NN=C1CCCCCC1)c1cc(-c2ccccc2)nc2ccccc12 |  | active: 2.99 µM |

| SMILES | max response, negative = inhibition | Potency |
| --- | --- | --- |
| COc1ccc(C2=NOC(C(=O)NCc3ccccn3)C2)cc1 (configuration not stated) |  | active: 26.7 µM |
| CCC(C)C(=O)Nc1nnc(-c2cccs2)s1 (configuration not stated) |  | inconclusive: 23.8 µM [inhibitor, partial curve] |
| COc1ccc(Cl)cc1NC(=O)CSc1sc2c(O)cc(=O)[nH]c2c1C#N |  | inconclusive: 26.7 µM [inhibitor, single point] |
| O=C(Nc1cccc(S(=O)(=O)N2CCOCC2)c1)c1ccc2c(=O)n3c(nc2c1)CCCCC3 | inactive: 1.46% |  |
| O=C(NCC1CCCO1)c1ccc2c(c1)N(Cc1ccccc1)C(=O)CS2=O (configuration not stated) |  | active: 7.52 µM |
| CCN(CC)S(=O)(=O)c1ccc(OC)c(NC(=O)c2cccc([N+](=O)[O-])c2C)c1 |  | inconclusive: 26.7 µM [inhibitor, partial curve] |
| COc1ccc(-c2cc(C(=O)N3CCCC3)c3ccccc3n2)cc1 |  | inconclusive: 29.9 µM [inhibitor, partial curve] |
| COC(=O)c1cccc(Cn2nc(C)c([N+](=O)[O-])c2C)c1 |  | active: 21.2 µM |
| Cc1cccc(N2CCN(C(=O)NCc3ccc(F)cc3)CC2)c1C |  | active: 29.9 µM |
| CCOC(=O)N1CCN(S(=O)(=O)N2CCCC(C(=O)NCc3ccccc3Cl)C2)CC1 (configuration not stated) |  | inconclusive: 23.8 µM [inhibitor, partial curve] |
| COC(=O)C(Cc1ccccc1)NC(=O)C(CC(C)C)NC(=O)OC(C)(C)C (stereo not drawn) (Boc-Leu-Phe-OMe; configuration not given here) | inconclusive: -30.8% [inhibitor] |  |
| Cc1nc(SCc2ccc(Cl)c(Cl)c2)ncc1C(=O)O | inconclusive: -31.2% [inhibitor] |  |
| CCn1c(N)c(C(=O)NCc2ccco2)sc1=S |  | active: 23.8 µM |
| COn1c(=O)c(-c2cccs2)[n+]([O-])c2ccccc21 |  | active: 2.12 µM |
| O=C(COc1coc(CN2CCN(Cc3ccccc3)CC2)cc1=O)Nc1ccccc1 | inactive: -9.65% |  |
| CC(C)(C)c1cc(C(=O)Nc2cccnc2)cc(C(=O)Nc2cccnc2)c1 |  | inconclusive: 33.6 µM [inhibitor, single point] |
| CSCCC(NS(=O)(=O)c1ccccc1F)C(=O)Nc1ccncc1 (configuration not stated) |  | inconclusive: 37.7 µM [inhibitor, partial curve, poor fit] |
| Cc1[nH][nH]c(=O)c1C=Nc1ccc(C(F)(F)F)cc1 | inactive: -6.16% |  |
| Cc1cc(C)n(-c2ccc(C(=O)Nc3cccc([N+](=O)[O-])c3)cc2)n1 |  | inconclusive: 7.52 µM [inhibitor, partial curve] |
| Oc1cc(-n2cccn2)c(O)cc1-n1cccn1 |  | inconclusive: 29.9 µM [inhibitor, single point] |
| CCn1ncc(CN2CCCC(C(=O)c3cccc(OC(C)C)c3)C2)c1C (configuration not stated) |  | inconclusive: 8.44 µM [inhibitor, single point] |
| Cc1c2ccccc2nc2c(F)c(N(C)C)c(F)c(F)c12 |  | inconclusive: 10.6 µM [inhibitor, partial curve] |
| Cc1ccc(Cl)cc1N1CCN(C(=O)C2CCN(S(=O)(=O)c3c(C)nn(C)c3C)CC2)CC1 | inactive: -1.94% |  |
| CCc1cc2c(SCC#N)ncnc2s1 |  | active: 26.7 µM |

Pulled by compound from above, three records:

| SMILES | max response, negative = inhibition | Potency |
| --- | --- | --- |
| COc1cccc(-c2cc(C(=O)NCC3CCCO3)on2)c1 (configuration not stated) | inactive: -6.62% |  |
| COC(=O)c1cccc(Cn2nc(C)c([N+](=O)[O-])c2C)c1 |  | active: 21.2 µM |
| CSCCC(NS(=O)(=O)c1ccccc1F)C(=O)Nc1ccncc1 (configuration not stated) |  | inconclusive: 37.7 µM [inhibitor, partial curve, poor fit] |

Next part

| SMILES | max response, negative = inhibition | Potency |
| --- | --- | --- |
| COc1c(C)cc(C(=O)C2CCCN(Cc3cccc4nccnc34)C2)cc1C (configuration not stated) | inactive: -7.27% |  |
| COC(=O)c1ccc(N2CCN(C(C)=O)CC2)c(NC(=O)COc2ccccc2C)c1 | inactive: -0.558% |  |
| Cn1c(SCc2ccc(Cl)cc2)nnc1-c1ccc2nonc2c1 | inactive: -4.81% |  |
| O=C(Nc1ccc(F)cc1)c1ccc(COc2ccccc2)cc1 |  | active: 26.7 µM |
| CC(C)c1c(C(=O)N/N=C/c2ccc(C(F)(F)F)cc2)nnn1-c1nonc1N |  | inconclusive: 18.9 µM [inhibitor, partial curve] |
| COc1cccc(C2CC(c3ccc(Cl)cc3Cl)Nc3nc(N)nn32)c1 (configuration not stated) |  | inconclusive: 23.8 µM [inhibitor, partial curve] |
| NC(=O)CSc1nnc(-c2ccco2)n1-c1ccccc1 | inactive: -4.51% |  |
| CCCN1C(=O)C(O)(C2COC(C)(C)CC2=O)c2ccccc21 (configuration not stated) |  | inconclusive: 29.9 µM [inhibitor, partial curve] |
| CCOC(=O)Cn1c(=O)oc2cc(S(=O)(=O)Nc3cccc(C)c3)ccc21 | inconclusive: -30.4% [inhibitor] |  |
| CC1CC(C)CN(S(=O)(=O)c2ccc(C(=O)Nc3nnc(-c4cccs4)o3)cc2)C1 (configuration not stated) |  | inconclusive: 35.5 µM [inhibitor, single point] |
| COc1cccc(C(O)c2nc(-c3cccc(C(C)C)c3)cs2)c1 (configuration not stated) | inactive: 0.316% |  |
| Cc1c(N)cc(S(=O)(=O)O)cc1NC(=O)c1cccc([N+](=O)[O-])c1 | inactive: -18.5% |  |
| CN1CCN(C(=O)c2ccc(-c3cc4nc(NCc5cccnc5)n(C)c(=O)c4s3)cc2)CC1 | inactive: -24.5% |  |
| NC(=O)NCCC1=CCCCC1 | inactive: -4.42% |  |
| CC(Nc1ncnc2ccccc12)c1ccccc1 (configuration not stated) |  | inconclusive: 26.7 µM [inhibitor, partial curve] |
| Cc1nc2ccccn2c1-c1csc(Nc2cccc(C(=O)O)c2)n1 | inactive: -3.83% |  |
| COc1ccccc1C(=O)NC(=S)Nc1cc(C(=O)O)ccc1C |  | inconclusive: 29.9 µM [inhibitor, single point] |
| CCOC(=O)c1c(OCC)[nH]c2c1cc(O)c1ccccc12 |  | inconclusive: 29.9 µM [inhibitor, single point] |
| O=c1cc(CO)oc(C(Nc2cccc([N+](=O)[O-])c2)c2ccccn2)c1O (configuration not stated) |  | inconclusive: 29.9 µM [inhibitor, partial curve] |
| c1ccc(-c2ccccn2)nc1 | inactive: -5.29% |  |
| O=C(NCCCCc1ccccc1)c1cccc(NC(=O)C2CC2)c1 |  | active: 18.9 µM |
| Cc1cc(C)cc(C(=O)NC(=S)Nc2ccc(-c3cc4ccccc4oc3=O)cc2)c1 | inactive: -9.72% |  |
| COc1ccc(S(=O)(=O)Nc2nnc(C(C)(C)C)s2)cc1 |  | active: 7.52 µM |
| Cc1nc(-c2cccc(S(=O)(=O)N3CCCCC3)c2)cs1 |  | inconclusive: 16.8 µM [inhibitor, partial curve] |
